# Experimental data reported in article PMC5056459, “Antagonistic roles of Drosophila Tctp and Brahma in chromatin remodelling and stabilizing repeated sequences” (Nature Communications, 2016).
# By UniProt entry, the sequences of proteins in these tests, tags left out.
# UniProt P25439: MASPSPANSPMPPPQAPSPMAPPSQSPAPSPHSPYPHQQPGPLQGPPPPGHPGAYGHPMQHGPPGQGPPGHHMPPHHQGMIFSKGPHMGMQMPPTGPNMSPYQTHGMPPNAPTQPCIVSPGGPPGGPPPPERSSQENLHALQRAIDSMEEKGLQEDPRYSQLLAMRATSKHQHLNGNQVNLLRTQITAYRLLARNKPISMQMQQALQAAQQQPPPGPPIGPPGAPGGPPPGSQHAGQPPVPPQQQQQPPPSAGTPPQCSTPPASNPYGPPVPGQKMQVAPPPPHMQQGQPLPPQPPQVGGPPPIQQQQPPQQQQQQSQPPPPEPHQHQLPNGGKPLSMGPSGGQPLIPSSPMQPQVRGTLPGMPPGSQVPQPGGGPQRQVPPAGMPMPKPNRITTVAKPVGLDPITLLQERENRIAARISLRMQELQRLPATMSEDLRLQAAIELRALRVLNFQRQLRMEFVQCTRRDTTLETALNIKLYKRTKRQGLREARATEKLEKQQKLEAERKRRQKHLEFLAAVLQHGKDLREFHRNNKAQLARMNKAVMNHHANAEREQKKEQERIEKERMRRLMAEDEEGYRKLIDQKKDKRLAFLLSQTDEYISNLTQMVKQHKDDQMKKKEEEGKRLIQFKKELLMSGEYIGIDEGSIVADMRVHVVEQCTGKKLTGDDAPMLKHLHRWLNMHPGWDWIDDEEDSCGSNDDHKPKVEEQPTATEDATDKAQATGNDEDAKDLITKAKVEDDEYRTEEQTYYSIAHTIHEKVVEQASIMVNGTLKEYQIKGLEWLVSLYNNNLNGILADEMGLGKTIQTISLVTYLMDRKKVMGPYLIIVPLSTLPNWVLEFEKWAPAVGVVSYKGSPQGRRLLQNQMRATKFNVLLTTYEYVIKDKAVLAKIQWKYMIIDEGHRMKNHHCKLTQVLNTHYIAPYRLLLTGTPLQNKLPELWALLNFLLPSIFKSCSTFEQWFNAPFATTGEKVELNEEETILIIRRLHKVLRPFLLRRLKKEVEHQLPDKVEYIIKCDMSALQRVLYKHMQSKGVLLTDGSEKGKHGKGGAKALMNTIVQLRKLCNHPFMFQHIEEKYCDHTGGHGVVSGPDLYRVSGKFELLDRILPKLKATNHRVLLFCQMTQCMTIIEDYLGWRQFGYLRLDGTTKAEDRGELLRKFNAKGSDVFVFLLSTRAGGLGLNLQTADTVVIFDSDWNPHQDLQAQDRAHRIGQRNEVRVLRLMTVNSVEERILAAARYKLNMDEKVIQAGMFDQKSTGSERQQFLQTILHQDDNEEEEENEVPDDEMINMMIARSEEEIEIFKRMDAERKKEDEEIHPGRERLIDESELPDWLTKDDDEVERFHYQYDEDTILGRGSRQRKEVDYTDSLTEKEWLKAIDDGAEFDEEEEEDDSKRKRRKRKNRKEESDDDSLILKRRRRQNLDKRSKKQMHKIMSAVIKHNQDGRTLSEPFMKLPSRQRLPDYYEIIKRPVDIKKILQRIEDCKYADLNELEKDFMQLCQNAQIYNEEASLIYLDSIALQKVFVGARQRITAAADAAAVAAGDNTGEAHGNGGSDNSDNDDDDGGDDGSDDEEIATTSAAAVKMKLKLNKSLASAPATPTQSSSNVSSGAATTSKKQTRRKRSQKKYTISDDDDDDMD
# These are yes or no findings as the source states them, for the method shown. In cells and extracts the contact can be indirect. Some binding calls cover weakened binding; strength is not graded here. Sequences can lack the tags named with a protein.
# B1: ARP4-V5 (protein, UniProt Q7K012 1-425)
# chain: MSGGTMLYGGDEIGALVFDPGHHSLRVGYAQEDSPKAEIPSVVGIGAAPETNLDPETKTDNNATPNNADQRKFYVDTNYVTVPRSNMEVQTYMKDGMIDNWDLFEKVIDYAYANVIQSEPEYHPVLFSEASWNVRNNREKLTELMFEKYNVPAFFLVKNAVLAAFSSGRATALVVDSGATHTSAVPVHEGYVLSQAVVKSPLGGDFLSRQCRQHLEKHGIDLSPVYKIASKDVVKERDNGRFTLRKLPENLTQSWQNYMLQLMMQDFQMNVLQVLENPFDERVAAQIPTVHYEFPNGYHQDFGSERFKIAESLFDNAMLGAGQLASTSVGMCDADVRLSLFGSVVVTGGNTLLQGFPERLNRDLQLRAPSNTRLKMISANGSVERRFGAWIGGSILASIGTFQQMWISSQEYEEAGKSQVERKCP
# B2: MBP-Tctp (natural protein, Drosophila, UniProt Q9VGS2 1-172, looked up)
# chain: MKIYKDIITGDEMFADTYKMKLVDDVIYEVYGKLITRQGDDIKLEGANASAEEADEGTDITSESGVDVVLNHRLTECFAFGDKKSYTLYLKDYMKKVLAKLEEKSPDQVDIFKTNMNKAMKDILGRFKELQFFTGESMDCDGMVALVEYREINGDSVPVLMFFKHGLEEEKC
# notes: Drosophila Tctp in pMAL-c2; also called MBP-tagged Tctp; source: E. coli Rosetta2, extracted and dialysed
# What was measured:
# [1] = molecular target: T1, 2xMYC-Tctp (Drosophila) (UniProt Q9VGS2); assay: co-IP; nuclear extract of transfected S2 cells, treated with benzonase 100 U per ml for 1 h in IP buffer (20 mM HEPES pH 7.4, 80 mM KCl, 0.2% NP-40); IP with anti-MYC, anti-FLAG or anti-Pol-II at 4 °C for 2 h; western blot; for ARP4/Act (Fig. 2a) cells with or without Tctp knock-down by dsRNA
# T1 sequence: B2 chain
# [2] = molecular target: 2xFLAG-tagged full-length wild-type Brm (Brm^WT) (Drosophila) (UniProt P25439); assay: as above
Molecule,binding [1],binding [2]
2xFLAG-tagged full-length wild-type Brm (Brm^WT) (from UniProt P25439 1-1638) (enzyme),binds,–
B1,–,binds
B2,–,binds
